The test system of the experiment is L1210 leukemia ip in BDF1 mice, survival T/C. Kind of experiment: NCI In Vivo Anticancer Drug Screen. Data for tumor model L1210 Leukemia (intraperitoneal) in B6D2F1 (BDF1) mice. As to conditions: T/C endpoint: mean survival time, higher T/C = longer survival.
Setting [1] is: dose: 50.0 mg/kg/injection, schedule: Q04DX003 (ip), vehicle: saline.
Setting [2] is: dose: 200.0 mg/kg/injection, schedule: Q01DX001 (ip), vehicle: saline.
Setting [3] is: dose: 200.0 mg/kg/injection, schedule: Q01DX009 (ip), vehicle: saline.
Setting [4] is: dose: 400.0 mg/kg/injection, schedule: Q01DX001 (ip), vehicle: saline.
Setting [5] is: dose: 400.0 mg/kg/injection, schedule: Q04DX003 (ip), vehicle: saline.
The mark [6] stands for this setting: dose: 300.0 mg/kg/injection, schedule: Q01DX001 (ip), vehicle: saline.
Setting [7] is: dose: 400.0 mg/kg/injection, schedule: Q01DX001 (ip), vehicle: carboxymethylcellulose (CMC).
[8] abbreviates: dose: 400.0 mg/kg/injection, schedule: Q01DX001 (ip), vehicle: saline with Tween-80.

The list is a part of this screen's results and no random one: it is rich in T/C values a quarter to a half above the control, in often repeated tests (any T/C) and in doses without a T/C. Other doses and runs of a compound stand elsewhere. T/C: endpoint of the treated group in % of that of the vehicle group. Some entries give survivors of the animals treated and no T/C: the source files T/C as zero there, which appears to mark a toxic dose or a test without result, not a measured value. Some doses without a T/C left all or most animals alive at the check, yet need not have been tolerated: survival well below the control is almost never listed, so the zero probably covers shortened survival too. Counts of survivors are from the toxicity check (mostly the fifth day) where no day follows; animals may have died later. Schedules are NCI's codes, read here as Q, the interval in days (D) or hours (H), X, the number of doses. Some entries were tested several times; their values stand side by side, smallest first. Some molecules as drawn cover several salts, stereoisomers or complexes of the source; a dose is that of the sample tested. Where survival is the endpoint, the PubChem record calls one and a half times the control and up active, and a quarter to a half above the control has no call in these data; cut-offs in other NCI protocols can differ. Some T/C values are followed by the survivors on the day toxicity was checked, most often the fifth; without a count, all were alive then.

`OCCOCCN1CCN(CCCN2c3ccccc3Sc3ccc(C(F)(F)F)cc32)CC1`: the survivor count is, setting by setting: (dose: 3.12 mg/kg/injection, schedule: Q01DX009 (ip), vehicle: saline) 6 of 6; (dose: 6.25 mg/kg/injection, schedule: Q01DX009 (ip), vehicle: saline) 6 of 6; (dose: 12.5 mg/kg/injection, schedule: Q01DX009 (ip), vehicle: saline) 4 of 6; (dose: 25.0 mg/kg/injection, schedule: Q01DX009 (ip), vehicle: saline) 3 of 6; (dose: 37.5 mg/kg/injection, schedule: Q01DX009 (ip), vehicle: saline) 6 of 6; (dose: 50.0 mg/kg/injection, schedule: Q01DX009 (ip), vehicle: saline) 5 of 6. Further, the survivor count is, setting by setting: under setting [1], 4 of 6; (dose: 75.0 mg/kg/injection, schedule: Q01DX009 (ip), vehicle: saline) 0 of 6; (dose: 100.0 mg/kg/injection, schedule: Q01DX009 (ip), vehicle: saline) 6 of 6; (dose: 100.0 mg/kg/injection, schedule: Q04DX003 (ip), vehicle: saline with Tween-80) 4 of 6; (dose: 100.0 mg/kg/injection, schedule: Q04DX003 (ip), vehicle: saline) 1 of 6 and 6 of 6; (dose: 150.0 mg/kg/injection, schedule: Q04DX003 (ip), vehicle: saline) 2 of 6. The survivor count (dose: 200.0 mg/kg/injection, schedule: Q04DX003 (ip), vehicle: saline with Tween-80) was 0 of 6; the survivor count (dose: 300.0 mg/kg/injection, schedule: Q04DX003 (ip), vehicle: saline) is given as 0 of 6; the survivor count (dose: 400.0 mg/kg/injection, schedule: Q04DX003 (ip), vehicle: saline with Tween-80) is 0 of 6; the survivor count (dose: 600.0 mg/kg/injection, schedule: Q04DX003 (ip), vehicle: saline) was 0 of 6; the survivor count (dose: 400.0 micrograms/kg/injection, schedule: Q01DX009 (ip), vehicle: saline) is reported as 5 of 6; the survivor count (dose: 800.0 micrograms/kg/injection, schedule: Q01DX009 (ip), vehicle: saline) is recorded as 6 of 6. In addition, the T/C is 128 and 132 % of control (dose: 33.0 mg/kg/injection, schedule: Q04DX003 (ip), vehicle: saline); 135 % of control (dose: 37.5 mg/kg/injection, schedule: Q04DX003 (ip), vehicle: saline); 109, 122 [5 of 6 alive], 128, 135, 150 % of control under setting [1]; 95, 113 [5 of 6 alive], 131, 173 % of control [5 of 6 alive] (dose: 75.0 mg/kg/injection, schedule: Q04DX003 (ip), vehicle: saline).
Take `CNc1ncnc2c1cnn2C`: the survivor count by setting is: (dose: 160.0 mg/kg/injection, schedule: Q01DX015 (ip), vehicle: carboxymethylcellulose (CMC)) 2 of 6; (dose: 320.0 mg/kg/injection, schedule: Q01DX015 (ip), vehicle: carboxymethylcellulose (CMC)) 0 of 6.
For the compound `C/C(=N/NC(N)=S)c1ccc(Cl)cc1`, the survivor count is given as 0 of 4 (dose: 20.0 mg/kg/injection, schedule: Q01DX001 (ip), vehicle: other); 0 of 4 (dose: 40.0 mg/kg/injection, schedule: Q01DX001 (ip), vehicle: other); 0 of 4 (dose: 80.0 mg/kg/injection, schedule: Q01DX001 (ip), vehicle: other).
On to `NNC(=O)c1ccncc1`, for which the survivor count runs as follows: under setting [2], 3 of 6; under setting [3], 3 of 6; under setting [4], 0 of 6; under setting [5], 0 of 4.
`CCCCCC(=C/c1ccccc1)/C=N/NC(=O)c1ccc[n+](C)c1`: the survivor count (dose: 200.0 mg/kg/injection, schedule: Q01DX009 (ip), vehicle: Klucel (hydroxypropylcellulose) (HPC)) is reported as 0 of 3.
As for `CC1CC(=O)N(Cl)C(=O)N1Cl` (stereo not drawn), the survivor count under setting [6] was 3 of 6.
Consider `CC(O)C(C)Cl` (stereo not drawn), for which the survivor count under setting [3] is reported as 3 of 3.
For the compound `CCO/C(C)=C(/C#N)c1ccc(Cl)cc1`, the survivor count is, setting by setting: (dose: 100.0 mg/kg/injection, schedule: Q01DX009 (ip), vehicle: gum acacia) 0 of 6; (dose: 200.0 mg/kg/injection, schedule: Q01DX009 (ip), vehicle: gum acacia) 0 of 6; (dose: 400.0 mg/kg/injection, schedule: Q01DX009 (ip), vehicle: gum acacia) 0 of 6.
Regarding `CSc1ncnc2c1ncn2N(CCCl)C(C)=O`, the survivor count is on record as 1 of 6 (dose: 200.0 mg/kg/injection, schedule: Q01DX001 (ip), vehicle: other) and 1 of 6 (dose: 400.0 mg/kg/injection, schedule: Q01DX001 (ip), vehicle: other).
As to `CN(C)CCCC#N`, under setting [5], the survivor count was 1 of 6.
For the compound `Clc1ccc(N=Cc2ccc(C=Nc3ccc(Cl)c(Cl)c3)cc2)cc1Cl`, the survivor count (dose: 100.0 mg/kg/injection, schedule: Q01DX009 (ip), vehicle: saline sonified) was 6 of 6 and the survivor count (dose: 400.0 mg/kg/injection, schedule: Q01DX009 (ip), vehicle: saline sonified) is listed as 6 of 6.
For the compound `COc1nn(C)c(=O)c2cccnc12`, the survivor count under setting [6] is 2 of 6.
As to `Nc1nc2ncc(C(=O)O)nc2c(=O)[nH]1`, the survivor count (dose: 200.0 mg/kg/injection, schedule: Q04DX003 (ip), vehicle: saline) is 2 of 6 and 3 of 6.
Take `CCC1([N+](=O)[O-])COP(=O)(N2CC2)OC1` (stereo not drawn): under setting [7], the survivor count is 1 of 4.
As to `CCN(CC)Cc1cc(Nc2cc(OC)cc3cccnc23)ccc1O`, the survivor count was 0 of 6 (dose: 75.0 mg/kg/injection, schedule: Q01DX001 (ip), vehicle: saline); 0 of 6 (dose: 150.0 mg/kg/injection, schedule: Q01DX001 (ip), vehicle: saline); 0 of 6 under setting [6].
On to `C[n+]1cc(C#N)cc(C#N)c1`, for which the survivor count under setting [6] is 1 of 6.
On to `FCCNCCF`, for which the survivor count is 0 of 4 (dose: 20.0 mg/kg/injection, schedule: Q01DX001 (ip), vehicle: saline); 0 of 4 (dose: 40.0 mg/kg/injection, schedule: Q01DX001 (ip), vehicle: saline); 0 of 4 (dose: 80.0 mg/kg/injection, schedule: Q01DX001 (ip), vehicle: saline); 0 of 4 (dose: 100.0 mg/kg/injection, schedule: Q01DX001 (ip), vehicle: saline); 0 of 4 under setting [2]; 0 of 4 under setting [4].
Turning to `O=C(/C=C(\C(=O)c1ccccc1)c1ccccc1)c1ccccc1`, the survivor count is, setting by setting: (dose: 100.0 mg/kg/injection, schedule: Q01DX001 (ip), vehicle: saline with Tween-80) 2 of 6; under setting [8], 6 of 6; under setting [4], 6 of 6.
For the compound `CC[C@@H](C(=O)[C@@H](C)[C@@H](O)[C@H](C)CCc1ccc(C)c(O)c1C(=O)O)[C@H]1O[C@](CC)([C@H]2CC[C@](O)(CC)[C@H](C)O2)C[C@@H]1C`, the survivor count reads like this: (dose: 12.5 mg/kg/injection, schedule: Q01DX009 (ip), vehicle: Klucel (hydroxypropylcellulose) (HPC)) 3 of 6; (dose: 50.0 mg/kg/injection, schedule: Q01DX009 (ip), vehicle: Klucel (hydroxypropylcellulose) (HPC)) 5 of 6; (dose: 100.0 mg/kg/injection, schedule: Q01DX009 (ip), vehicle: Klucel (hydroxypropylcellulose) (HPC)) 0 of 6.
As for `O=S(=O)(O)C(Nc1ccccn1)c1ccccc1` (stereo not drawn), the survivor count reads like this: (dose: 200.0 mg/kg/injection, schedule: Q01DX001 (ip), vehicle: saline with Tween-80) 0 of 3; under setting [8], 0 of 3.
As to `CN(C)CCNc1cc([N+](=O)[O-])ccc1[N+](=O)[O-]`, the survivor count under setting [2] was 1 of 4 and the survivor count under setting [4] was 0 of 4.
Take `CC1C(C(C)(C)C)N1C` (stereo not drawn): the survivor count (dose: 400.0 mg/kg/injection, schedule: Q04DX003 (ip), vehicle: Klucel (hydroxypropylcellulose) (HPC)) is given as 0 of 6.
Take `O=C1CCC(=O)N1[N+](=O)[O-]`: the survivor count under setting [4] is 1 of 4 and 2 of 4.
As to `CS(=O)(=O)O/C=C(\C#N)C(=O)O`, the survivor count under setting [7] is reported as 0 of 6.
